Experimental data reported in patent US20190169302A1 (SORRENTO THERAPEUTICS, published 2019).
Positions count from the first letter of the chain named. These are yes or no findings as the source states them, for the method shown. Some binding calls cover weakened binding; strength is not graded here. For part of these data: Tags and fused reporters may be left off the sequences shown.

T1: human OX40 antigen (soluble, titrated in the ELISA of Example 1) (human) (UniProt P43489)
T1 sequence: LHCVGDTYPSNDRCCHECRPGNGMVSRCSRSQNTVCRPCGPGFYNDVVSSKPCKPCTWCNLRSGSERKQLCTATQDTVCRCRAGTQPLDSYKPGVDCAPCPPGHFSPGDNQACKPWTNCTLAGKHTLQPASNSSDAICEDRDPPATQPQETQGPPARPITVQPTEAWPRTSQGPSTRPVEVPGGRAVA

T2: human OX40 antigen (captured on Ni-NTA plate, Example 4) (human) (UniProt P43489)
T2 sequence: T1 sequence

T3: Recombinant human OX40/His (human) (UniProt P43489)
T3 sequence: T1 sequence

B1: 5-A6 variant anti-OX40 antibody (antibody, V domains shown)
VH: QVQLVQSGAEVKKPGASVKVSCKTSGYTFTGYYLHWVRQAPGQGLEWMGIINPSDGSTRNAQKFEGRVTMTRDTSTSTVYMELSSLSPEDTAVYYCARDLEYIGSGSLSWFDPWGQGTLVTVSS
VL: QSALTQPASVSGSPGQSITISCTGSSSDIGGYNSVSWYQQYPGKAPKLIIYDVNNRPSGVSNRFSGSKSGNTASLTISGLQAEDEADYYCSSYTFDTGLVYVFGTGTKVTVL
B2: 2B4 wild type anti-OX40 antibody (antibody, V domains shown)
VH: B1 VH with V2M
VL: QPVLTQPASVSGSPGQSITISCTGTSSDLGAYDYVSWYQQQPGQAPKLIIYDVNNRPSGVSNRFSGSKSGNTASLTISGLQAEDEADYYCSSYTSSSTLVYVFGTGTKVTVL
notes: Fully human antibody of an IgG class, captured or detected through human Fc; the isotype control used was IgG1; also called 2B4 (WT); wild type 2B4
B3: 5-A8 variant anti-OX40 antibody (antibody, V domains shown)
VH: B1 VH
VL: B1 VL with D96H
B4: 5-C8 variant anti-OX40 antibody (antibody, V domains shown)
VH: B1 VH
VL: B1 VL with F95H, D96N
B5: 5-F5 variant anti-OX40 antibody (antibody, V domains shown)
VH: B1 VH
VL: B1 VL with F95Y
B6: 5-G8 variant anti-OX40 antibody (antibody, V domains shown)
VH: B1 VH
VL: B1 VL with F95Y, D96Y, G98E
B7: 5-H6 variant anti-OX40 antibody (antibody, V domains shown)
VH: B1 VH
VL: B1 VL with F95Y, T97N, G98D

What follows are binders tested against T1, human OX40 antigen (soluble, titrated in the ELISA of Example 1) (human) (assay: ELISA, antibody coated, human OX40 antigen titrated).
With B1 the binding was “binds”. For B2, the binding was “binds”. For B3, the binding was “binds”. B4 was tested, and the binding was “binds”. B5 was tested, and the binding was “binds”. For B6, the binding was “binds”. In the case of B7, the binding is reported as “binds”.

Each binder was assayed against T2, human OX40 antigen (captured on Ni-NTA plate, Example 4) (human) (assay: ELISA, OX40 antigen captured on Ni-NTA plate, antibody at 1 ug/mL).
For B2, the binding was “binds”.

What follows are binders tested against T3, Recombinant human OX40/His (human) (assay: SPR (Biacore T200), antibody captured by anti-human Fc, OX40/His as analyte).
With B2 the binding was “binds”.
